Measurements reported in PMC7819943, “Rice protein-binding microarrays: a tool to detect cis-acting elements near promoter regions in rice”.
This is one part of the list.

Amino acid sequences for entries named in this document (tags omitted).
UniProt Q0JBA9, entry or part of it: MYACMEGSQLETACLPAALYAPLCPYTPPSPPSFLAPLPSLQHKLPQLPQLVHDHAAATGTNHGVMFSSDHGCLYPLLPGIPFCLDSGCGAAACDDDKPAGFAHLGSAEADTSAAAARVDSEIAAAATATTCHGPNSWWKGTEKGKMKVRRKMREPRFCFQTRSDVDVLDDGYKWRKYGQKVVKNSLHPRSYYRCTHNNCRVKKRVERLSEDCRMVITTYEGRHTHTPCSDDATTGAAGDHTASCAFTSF

Target: OsWRKY34 (Oryza sativa, UniProt Q0JBA9 1-250)
Assay: protein-binding microarray (RPBM); PBS, 2% BSA, 51.3 ng/ul salmon testes DNA, 50 uM zinc acetate, 200 nM TF, 25 C, 1 h; high values mean tight binding
Conditions: protein: recombinant; tags: N-terminal polyhistidine and DsRed monomer fusion (pET32a); label: CyDye5-dUTP incorporated in the synthesized complementary strand; 3' TTTTT single-stranded linker to array surface; dsDNA, one strand shown
Summary of the method: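 For the binding signal, per-feature fluorescence intensity was read in arbitrary units on an Axon 4000B scanner. Before scanning, a 2% BSA-blocked custom Agilent array made double-stranded with Cy5-dUTP was washed after 1 h at 25 °C with 200 nM protein and 50 µM zinc acetate. The proteins were Ni–NTA-purified transcription factors with N-terminal polyhistidine and DsRed fusions, expressed in E. coli BL21-CodonPlus.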

Sequence | binding signal
GATGGCTACCTAGCTGACACGCAACGCCGGCCTCCGGATCCGGAGTCACCTAGTGCAG | 10600 fluorescence intensity (a.u.)
GGGTGGGTGGGGCGGTGCTTTCCTGGAGATGGGAGAGTGGCGGAGTCACCTAGTGCAG | 23000 fluorescence intensity (a.u.)
ACATTCACATTCACGACCACATTCACCGCCACGACACTGGCGGAGTCACCTAGTGCAG | 9460 fluorescence intensity (a.u.)
CTCCTCGCACCACCGGCTTCGCCTCCATCCGGCGAGTCCACGGAGTCACCTAGTGCAG | 8330 fluorescence intensity (a.u.)
GGTGTGGTAGGTGATGAGATTCAATGAGATGCTAGCTGCGCGGAGTCACCTAGTGCAG | 8820 fluorescence intensity (a.u.)
CTGGCCGGCGCGCGCGCGGGCGGGCGGGTTGTTCGCGATGCGGAGTCACCTAGTGCAG | 8220 fluorescence intensity (a.u.)
AGGCCCTTCTACTCCTTTGGCTCTTGTTGCTTCTGGTATGCGGAGTCACCTAGTGCAG | 11100 fluorescence intensity (a.u.)
ACCTATATGCAGCCCCTTCGAATATGTCCTGAGATTATTTCGGAGTCACCTAGTGCAG | 9230 fluorescence intensity (a.u.)
ATTTGTCGGTCCACCTCTATTTCACGCCAACTATTTTATGCGGAGTCACCTAGTGCAG | 8240 fluorescence intensity (a.u.)
ACACAAACTCCCAACTTTTCCGTCACATCGTTCCAATTTCCGGAGTCACCTAGTGCAG | 9700 fluorescence intensity (a.u.)
CCGCCGTCGACCGTCTCTTCCGCGGCCTCCTCGCCGGTAACGGAGTCACCTAGTGCAG | 9160 fluorescence intensity (a.u.)
GGAGTTTGTTTGTTTCGTTTTCCACACGCACGTTTCCCAACGGAGTCACCTAGTGCAG | 12900 fluorescence intensity (a.u.)
TCTCGGCTCGCAATGCTTTTTGGAGTTTTGTTTCTCTCCCCGGAGTCACCTAGTGCAG | 10200 fluorescence intensity (a.u.)
CCATTCATCTTTTTTATTTTTTTTTTGCAAATATATAAAACGGAGTCACCTAGTGCAG | 8400 fluorescence intensity (a.u.)
CCATCCGTATCCGCTCCGTTTTCATCCCTGCTCGTCTGCCCGGAGTCACCTAGTGCAG | 8610 fluorescence intensity (a.u.)
CGCTATATAACTCAGCCCGCGCGATCCCCGCACCAACCTCCGGAGTCACCTAGTGCAG | 8480 fluorescence intensity (a.u.)
GCTCGCCATCGCCACCGTCGTTCACACCACACCACCTGCTCGGAGTCACCTAGTGCAG | 9680 fluorescence intensity (a.u.)
TCTTCCACGCCTACTCCCGGTTTACGCGGTTTTTCTCACTCGGAGTCACCTAGTGCAG | 10800 fluorescence intensity (a.u.)
TTGGCCGGGTCTCTTGCGTTTGCATGCAACTACCTCTACTCGGAGTCACCTAGTGCAG | 8990 fluorescence intensity (a.u.)
TTTGAATTCGTGTGCGTTGCTGTACTATACTTGTGATGATCGGAGTCACCTAGTGCAG | 8290 fluorescence intensity (a.u.)
ATGGTTTGGATTCCTGCACAAATTTGATTGCATGCCTTCCCGGAGTCACCTAGTGCAG | 8660 fluorescence intensity (a.u.)

As entered above.
ACACAAACTCCCAACTTTTCCGTCACATCGTTCCAATTTCCGGAGTCACCTAGTGCAG – binding signal: 9700 fluorescence intensity (a.u.)
CTCCTCGCACCACCGGCTTCGCCTCCATCCGGCGAGTCCACGGAGTCACCTAGTGCAG – binding signal: 8330 fluorescence intensity (a.u.)

Next part:

Sequence | binding signal
TTGACACCGTTGACTTTTTAGCACATGTTTGACCGTTCGTCGGAGTCACCTAGTGCAG | 35800 fluorescence intensity (a.u.)
CGATCGCATCGCTCGCATCAGCTGCCGCTAGCTGTCCATTCGGAGTCACCTAGTGCAG | 8670 fluorescence intensity (a.u.)
TCGACTATTTAGGGTTTGTTGTTGGGTTGAACTTTATGGGCGGAGTCACCTAGTGCAG | 9290 fluorescence intensity (a.u.)
CGCGCCACATACTGCTACTAGCAACGCTCCACTTGCTTGACGGAGTCACCTAGTGCAG | 8140 fluorescence intensity (a.u.)
TCCCTCATTTCTCCTTTTTTTTTTAATCTATTTTTTTTGACGGAGTCACCTAGTGCAG | 9140 fluorescence intensity (a.u.)
TGTTTTCTTCCATGTGTACTACAAGGGGTCGGTCTATCATCGGAGTCACCTAGTGCAG | 9640 fluorescence intensity (a.u.)
TCTACTATTTTTCTTGTTATTTGTAATTACATAAATTATACGGAGTCACCTAGTGCAG | 8360 fluorescence intensity (a.u.)
CTCTGTTTCTTCCTTTTTGTTTTTCTTTCGAGAGAGAAAACGGAGTCACCTAGTGCAG | 9790 fluorescence intensity (a.u.)
CATCCTCAAGTCGCTGTGACCGCACCATGCATATTCACATCGGAGTCACCTAGTGCAG | 8700 fluorescence intensity (a.u.)
GAGGTCCTCCCTTCTTCGCTTCTTCCAATCCATGGGCCGCCGGAGTCACCTAGTGCAG | 8340 fluorescence intensity (a.u.)
TAGTCACACATTTGATCATTCGTCTTATTCAAAAAATTTACGGAGTCACCTAGTGCAG | 8620 fluorescence intensity (a.u.)
TTGGGATGTTTCATATTCAATTTTACGGTTAAGGGACGTACGGAGTCACCTAGTGCAG | 9350 fluorescence intensity (a.u.)
GGAGTCTTTGCTTGCTCGAGTAATATAATGCTGTTAACCCCGGAGTCACCTAGTGCAG | 8550 fluorescence intensity (a.u.)
CTCCCTCGTCTTTCTGCTGGCCACCACCCTCCCCGTCTTCCGGAGTCACCTAGTGCAG | 12300 fluorescence intensity (a.u.)
TACCATGAGCTAGTTTTTGTTCTTGTGCCTTTTGTTCTTACGGAGTCACCTAGTGCAG | 13600 fluorescence intensity (a.u.)
TCTTCGATTTCTTGCTTCTTGATTCGTCGCCGCTGCTGCTCGGAGTCACCTAGTGCAG | 10200 fluorescence intensity (a.u.)
TCCTATGGAGTAATTATATTTTGCAGTTGCAGCCATCAGTCGGAGTCACCTAGTGCAG | 8880 fluorescence intensity (a.u.)
GAATGCACTTGGTCAAACTGATTCCACTCGGTCCCTACATCGGAGTCACCTAGTGCAG | 9600 fluorescence intensity (a.u.)
CTAATGCCTAATATATGTGGGTCCACCGTTTTAAATGAAACGGAGTCACCTAGTGCAG | 15500 fluorescence intensity (a.u.)
AGCGCCTTTAATACCGTCGTCACCGATCGGCTTCCGTTTTCGGAGTCACCTAGTGCAG | 10200 fluorescence intensity (a.u.)
TTCGCGCCGCCGCCCTCGCCTCTCTTGCGCCTCCACCGGCCGGAGTCACCTAGTGCAG | 9190 fluorescence intensity (a.u.)
